Construct, isoform or probe ends are uncertain for at least one entry. For some assays here: Weaker means in comparison with the reference protein, sequence or condition of that experiment. For some assays here: At least one verdict rests on a figure or table, not on a statement of the authors.

Sequences of proteins named here, by UniProt entry; tags and fusion partners are left off. A change or cut given only in a name is not applied to a line headed by its entry.
UniProt P09651: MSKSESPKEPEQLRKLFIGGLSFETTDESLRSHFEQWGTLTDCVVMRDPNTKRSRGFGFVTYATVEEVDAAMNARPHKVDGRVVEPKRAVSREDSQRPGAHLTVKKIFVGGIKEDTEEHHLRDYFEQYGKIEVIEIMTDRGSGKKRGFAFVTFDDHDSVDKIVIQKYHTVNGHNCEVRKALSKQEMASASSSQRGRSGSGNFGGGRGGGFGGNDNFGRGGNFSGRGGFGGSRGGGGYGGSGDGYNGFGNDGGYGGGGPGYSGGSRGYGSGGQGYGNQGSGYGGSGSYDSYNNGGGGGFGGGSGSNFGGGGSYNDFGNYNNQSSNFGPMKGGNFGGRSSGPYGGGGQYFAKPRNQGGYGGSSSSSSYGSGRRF

For series [1], the target named is hnRNP A1 (UniProt P09651). Briefly: EMSA. The settings on record: EMSA: 50 mM Tris-acetate pH 5.5, 50 mM KCl, 1 mM DTT, 8% glycerol, 5 mM NaF, 1 mM Na3VO4, 2.5 ng/ul salmon sperm DNA, 20 C, competition at 37 C with 1 mM EDTA, recombinant protein.
Series [2] deals with hnRNP A1 (UniProt P09651). In words: FRET. The settings on record: FRET: 50 mM Na cacodylate pH 5.5 (hras-2Y pH 6.5), 50 mM KCl, recombinant protein, label: 5' ATTO-488, 3' TAMRA, folded or branched DNA.

As to “TTTTTTTCGCCCGTGCCCGTCGCCCGCAACCCGATTTTTTT [hras-1Y-dy781]”, the binding result was “binds” in the series with hnRNP A1 [1] (pH 5.5, 0 C, only 1:1 complex, label: 5' Dy-781, folded or branched DNA) and “binds” with hnRNP A1 [1] (pH 5.5, 37 C, 1:1 at 50-fold, 1:2 at 100-fold protein, label: 5' Dy-781, folded or branched DNA).
As to “CGCTCGTGCTCTGCGCTCGCAACTCGA [hras-1Y(m)]”, the binding result with hnRNP A1 [1] (pH 5.5, single-stranded DNA) was “binds more weakly”.
On to “CGCCGCCCGTGCCCTGCGCCCGCAACCCGAGC [A-hras-1Y-T]”, for which the binding result with hnRNP A1 [2] (pH 5.5, energy transfer 0.77 to 0.18 at r = 7 (unfolding)) is listed as “binds”.
As for CGCGCCCCCGCCCCCGCCCCGCCCC [A-hras-2Y-T], the binding result in the series with hnRNP A1 [2] (pH 6.5, melting profile abrogated) was “binds”.
